Values of other authors in patent US20010039006A1, “Toxicity typing using embryoid bodies” (priority 1998, published 2001).

Conditions: Table 1

## O=C(O)c1cn(C2CC2)c2cc(N3CCNCC3)c(F)cc2c1=O [ciprofloxacin]
  TOXICITIES LIVER: ntc
